The list is a part of this screen's results and no random one: it gathers tests that were run many times, whatever their T/C, doses with no T/C, and many T/C values between a quarter and a half above the control. Other doses and runs of a compound stand elsewhere. T/C is the treated group as % of the vehicle group. Some doses have a count of surviving animals in place of a T/C: the source files T/C as zero there, which appears to mark a toxic dose or a test without result, not a measured value. Some survivor counts are full or nearly so, which does not show that the dose was tolerated: the source hardly ever lists a survival T/C far under the control, and the zero likely stands for such cases as well. Survivors were counted at the toxicity check, usually on the fifth day, unless a day is given; later deaths do not show. Schedule codes are those of the source, taken here to give the interval after Q, in days (D) or hours (H), and the number of doses after X. Some doses were run more than once; the results are listed from low to high. Where survival is the endpoint, the PubChem record calls one and a half times the control and up active, and a quarter to a half above the control has no call in these data; cut-offs in other NCI protocols can differ. Some T/C values carry the count of animals alive at the toxicity check (mostly the fifth day); without a count, all were alive then.
System: BDF1 mice, P388 leukemia ip, median survival T/C
Assay: NCI In Vivo Anticancer Drug Screen. Data for tumor model P388 Leukemia (intraperitoneal) in B6D2F1 (BDF1) mice
Conditions: T/C endpoint: median survival time, higher T/C = longer survival
Outline: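 Transplantable tumour in mice; compound vs vehicle dosing; survival scored; ratio of treated to control reported.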

[1] = dose: 100.0 mg/kg/injection, schedule: Q04DX003 (ip), vehicle: saline
[2] = dose: 200.0 mg/kg/injection, schedule: Q04DX003 (ip), vehicle: saline
[3] = dose: 100.0 mg/kg/injection, schedule: Q01DX009 (ip), vehicle: saline with Tween-80
[4] = dose: 400.0 mg/kg/injection, schedule: Q01DX009 (ip), vehicle: saline with Tween-80
[5] = dose: 50.0 mg/kg/injection, schedule: Q01DX009 (ip), vehicle: saline with Tween-80
[6] = dose: 100.0 mg/kg/injection, schedule: Q01DX009 (ip), vehicle: saline
[7] = dose: 200.0 mg/kg/injection, schedule: Q04DX003 (ip), vehicle: saline with Tween-80
[8] = dose: 400.0 mg/kg/injection, schedule: Q04DX003 (ip), vehicle: saline
[9] = dose: 200.0 mg/kg/injection, schedule: Q01DX009 (ip), vehicle: saline with Tween-80
[10] = dose: 400.0 mg/kg/injection, schedule: Q04DX003 (ip), vehicle: saline with Tween-80
[11] = dose: 200.0 mg/kg/injection, schedule: Q04DX002 (ip), vehicle: saline with Tween-80
[12] = dose: 400.0 mg/kg/injection, schedule: Q04DX002 (ip), vehicle: saline with Tween-80
[13] = dose: 0.45 mg/kg/injection, schedule: Q01DX009 (ip), vehicle: saline

## Cc1cccc(-c2nc3cc(Cl)ccc3c(=O)o2)c1
dose: 200.0 mg/kg/injection, schedule: Q01DX009 (ip), vehicle: Klucel (hydroxypropylcellulose) (HPC)
  survivor count: 5 of 6

## C[N+]1(C)CCCCC1
dose: 25.0 mg/kg/injection, schedule: Q04DX003 (ip), vehicle: saline with Tween-80
  survivor count: 6 of 6
dose: 50.0 mg/kg/injection, schedule: Q04DX003 (ip), vehicle: saline with Tween-80
  survivor count: 0 of 6
[1]
  survivor count: 0 of 6
[2]
  survivor count: 0 of 6

## C/C(=N\Nc1ccc([N+](=O)[O-])cc1[N+](=O)[O-])C(F)(F)F
[3]
  T/C: 145 % of control

## CC(=O)NCCN=Cc1ccccc1
[4]
  T/C: 125 % of control [5 of 6 alive]

## CNC(=O)NNc1ccccc1
dose: 100.0 mg/kg/injection, schedule: Q04DX003 (ip), vehicle: Klucel (hydroxypropylcellulose) (HPC)
  T/C: 125 % of control

## COc1ccc2c(c1)CCC1=C2C=C[P+]1(C)C
[5]
  survivor count: 2 of 6

## Nc1nc(=S)c2ncn(C3OC(CO)C(O)C3O)c2[nH]1 (configuration not stated)
dose: 1.0 mg/kg/injection, schedule: Q01DX010 (ip), vehicle: saline
  T/C: 131 % of control
dose: 2.0 mg/kg/injection, schedule: Q01DX010 (ip), vehicle: saline
  T/C: 131 % of control
[6]
  T/C: 128 % of control
[1]
  T/C: 136 % of control
[7]
  T/C: 140 % of control
[2]
  T/C: 136 % of control
[8]
  T/C: 131 % of control

## O=C(C1CC2CCC1C2)C1CC2CCC1C2 (configuration not stated)
dose: 200.0 mg/kg/injection, schedule: Q01DX009 (ip), vehicle: other
  T/C: 128 % of control
dose: 400.0 mg/kg/injection, schedule: Q01DX009 (ip), vehicle: other
  survivor count: 6 of 6

## C1CSCCSCCCSCCSC1
[9]
  T/C: 130 % of control

## CCOC(=O)CC/C(=C/c1ccccc1)[N+](=O)[O-]
[7]
  survivor count: 5 of 6

## Nc1nc(N)c2c(ccc3nccc32)[nH]1
dose: 50.0 mg/kg/injection, schedule: Q01DX005 (ip), vehicle: saline with Tween-80
  survivor count: 1 of 5
dose: 100.0 mg/kg/injection, schedule: Q01DX005 (ip), vehicle: saline with Tween-80
  survivor count: 0 of 5
dose: 200.0 mg/kg/injection, schedule: Q01DX005 (ip), vehicle: saline with Tween-80
  survivor count: 0 of 5

## Nc1nc(N)c2c(Cl)c(CNc3ccc(Cl)c(Cl)c3)ccc2n1
dose: 25.0 mg/kg/injection, schedule: Q01DX009 (ip), vehicle: saline with Tween-80
  survivor count: 6 of 6
dose: 25.0 mg/kg/injection, schedule: Q04DX003 (ip), vehicle: water
  T/C: 130 % of control
[5]
  survivor count: 6 of 6
dose: 50.0 mg/kg/injection, schedule: Q04DX003 (ip), vehicle: water
  T/C: 133 % of control
[3]
  survivor count: 6 of 6

## CCCCc1c2c(nn1C(C)=O)C(=O)C=C(Nc1ccccc1)C2=O
[10]
  survivor count: 5 of 6

## CC(=O)CC(C)=O.CC(=O)CC(C)=O.O=N[O-].O=N[O-].[Co]
dose: 100.0 mg/kg/injection, schedule: Q04DX002 (ip), vehicle: saline with Tween-80
  T/C: 126 and 127 % of control [5 of 6 alive]
[11]
  survivor count: 0 of 6 and 2 of 6
[12]
  survivor count: 0 of 6

## CN(C)C1Cc2ccccc2C1OC(=O)c1ccccc1 (configuration not stated)
[6]
  T/C: 126 % of control

## CCNC(C)(C)C(=O)c1ccco1
[8]
  survivor count: 3 of 6

## C[C@]12CC[C@H]3[C@@H](CC[C@]4(O)C[C@@H](O)CC[C@]34C=O)[C@@]1(O)CC[C@@H]2c1ccc(=O)oc1
dose: 55.0 mg/kg/injection, schedule: Q01DX010 (ip), vehicle: carboxymethylcellulose (CMC)
  survivor count: 6 of 6

## COc1ccc(Nc2ccnc3cc(Cl)ccc23)cc1CN(CCCl)CCCl
dose: 0.3 mg/kg/injection, schedule: Q01DX009 (ip), vehicle: saline
  T/C: 147 % of control
[13]
  T/C: 134 % of control
  survivor count: 6 of 6
dose: 0.5 mg/kg/injection, schedule: Q04DX003 (ip), vehicle: saline
  T/C: 131 % of control
dose: 0.63 mg/kg/injection, schedule: Q01DX009 (ip), vehicle: Klucel (hydroxypropylcellulose) (HPC)
  T/C: 129 % of control
dose: 0.75 mg/kg/injection, schedule: Q04DX003 (ip), vehicle: saline
  T/C: 127 % of control
dose: 0.78 mg/kg/injection, schedule: Q04DX003 (ip), vehicle: saline
  T/C: 127 % of control
dose: 1.0 mg/kg/injection, schedule: Q01DX009 (ip), vehicle: saline
  T/C: 145 % of control
dose: 1.0 mg/kg/injection, schedule: Q04DX003 (ip), vehicle: saline
  T/C: 127 % of control
dose: 1.25 mg/kg/injection, schedule: Q01DX009 (ip), vehicle: Klucel (hydroxypropylcellulose) (HPC)
  T/C: 146 % of control
dose: 1.56 mg/kg/injection, schedule: Q04DX003 (ip), vehicle: saline
  T/C: 145 % of control
dose: 2.0 mg/kg/injection, schedule: Q01DX009 (ip), vehicle: saline
  T/C: 140 % of control
dose: 2.0 mg/kg/injection, schedule: Q04DX003 (ip), vehicle: saline
  T/C: 145 % of control
dose: 2.5 mg/kg/injection, schedule: Q01DX009 (ip), vehicle: Klucel (hydroxypropylcellulose) (HPC)
  survivor count: 6 of 6
dose: 4.0 mg/kg/injection, schedule: Q04DX003 (ip), vehicle: saline
  T/C: 145 % of control
dose: 5.0 mg/kg/injection, schedule: Q01DX009 (ip), vehicle: Klucel (hydroxypropylcellulose) (HPC)
  survivor count: 6 of 6
dose: 6.25 mg/kg/injection, schedule: Q01DX009 (ip), vehicle: saline
  survivor count: 5 of 6
dose: 10.0 mg/kg/injection, schedule: Q01DX009 (ip), vehicle: Klucel (hydroxypropylcellulose) (HPC)
  survivor count: 2 of 6
dose: 12.5 mg/kg/injection, schedule: Q01DX009 (ip), vehicle: saline
  survivor count: 5 of 6
dose: 25.0 mg/kg/injection, schedule: Q01DX009 (ip), vehicle: saline
  survivor count: 0 of 6
dose: 50.0 mg/kg/injection, schedule: Q04DX003 (ip), vehicle: saline sonified
  survivor count: 5 of 6
dose: 100.0 mg/kg/injection, schedule: Q04DX003 (ip), vehicle: saline sonified
  survivor count: 4 of 6

## O=C(c1ccccc1Br)C(Br)C(Br)c1ccccc1 (configuration not stated)
dose: 400.0 mg/kg/injection, schedule: Q04DX003 (ip), vehicle: Klucel (hydroxypropylcellulose) (HPC)
  T/C: 135 % of control

## CC(=O)Oc1ccc2c(c1)C(=O)C(Br)C1C2CCC2(C)C(OC(C)=O)CCC12 (configuration not stated)
dose: 100.0 mg/kg/injection, schedule: Q01DX010 (sc), vehicle: steroid suspending solution
  survivor count: 6 of 6
dose: 200.0 mg/kg/injection, schedule: Q01DX010 (sc), vehicle: steroid suspending solution
  survivor count: 6 of 6

## OCCN=Cc1ccccc1
[10]
  survivor count: 0 of 6

## CN1CCC2=C(C1)C(N1CCCCC1)CS(=O)(=O)O2 (configuration not stated)
dose: 100.0 mg/kg/injection, schedule: Q04DX002 (ip), vehicle: saline
  survivor count: 5 of 6
[11]
  survivor count: 1 of 6
[12]
  survivor count: 0 of 6

## COc1ccc(C=Nc2c(N)[nH]c(=S)[nH]c2=O)cc1
[12]
  T/C: 127 and 128 % of control
dose: 600.0 mg/kg/injection, schedule: Q04DX002 (ip), vehicle: saline with Tween-80
  T/C: 134 % of control

## O=C1OC(=O)c2c(Br)c(Br)c(Br)c(Br)c21
dose: 16.5 mg/kg/injection, schedule: Q01DX009 (ip), vehicle: saline with Tween-80
  survivor count: 6 of 6

## O=C1OC(c2ccccc2)=C/C1=C/c1ccc([N+](=O)[O-])cc1
dose: 100.0 mg/kg/injection, schedule: Q04DX003 (ip), vehicle: saline with Tween-80
  survivor count: 6 of 6
[7]
  survivor count: 6 of 6
[10]
  T/C: 126 % of control
  survivor count: 6 of 6
dose: 500.0 mg/kg/injection, schedule: Q04DX003 (ip), vehicle: saline with Tween-80
  survivor count: 6 of 6

## COC(=O)c1ccc(Cl)c(Cl)c1
[3]
  survivor count: 5 of 6
[9]
  survivor count: 5 of 6
[7]
  T/C: 136 % of control
[4]
  survivor count: 0 of 6
[10]
  survivor count: 6 of 6
